Data source: PubChem BioAssay AID1259405 (NCATS, 2018)
Screen: 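Mouse-designed siRNAs used to find CHO productivity engineering targets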 (primary screen). Cells: Chinese hamster CHO-K1 ovary cells with stable secreted eGFP expression. Reagents: single siRNA against mouse genes, 0.8 pmol siRNA per well (2 µl of 400 nM stock). Time to read-out: 3 days. Read-out: 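Percent of the per-plate non-targeting control median for intracellular GFP per well by laser scanning cytometry and for cell viability by ATP luminescence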. Direction: GFP, % of control: higher = more GFP per well, higher productivity; viability (ATP), % of control: higher = more viable cells (more ATP). Call rule: 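a knock-down is called active if GFP reaches 120% or more of non-targeting control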.
Here is an unselected part of about 50,000 reagents tested. About 4,000 of them (8%) count as active. 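Mouse siRNA library applied to hamster cells; one well for each siRNA.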 The numbers tell different reagents against one gene apart.

Rnf212 (ring finger protein 212) #1
- GFP, % of control: 65.7
- viability (ATP), % of control: 69.3
- Outcome: inactive

Rnf212 (ring finger protein 212) #2
- GFP, % of control: 96.4
- viability (ATP), % of control: 86.5
- Outcome: inactive

Rnf212 (ring finger protein 212) #3
- GFP, % of control: 100
- viability (ATP), % of control: 65.3
- Outcome: inactive

Fgfr4 (fibroblast growth factor receptor 4)
- GFP, % of control: 109
- viability (ATP), % of control: 84.9
- Outcome: inactive

Prss3 (serine protease 3) #1
- GFP, % of control: 114
- viability (ATP), % of control: 100
- Outcome: inactive

Prss3 (serine protease 3) #2
- GFP, % of control: 67.8
- viability (ATP), % of control: 68.4
- Outcome: inactive

Prss3 (serine protease 3) #3
- GFP, % of control: 95.6
- viability (ATP), % of control: 103
- Outcome: inactive

Ocel1 (occludin/ELL domain containing 1) #1
- GFP, % of control: 126
- viability (ATP), % of control: 114
- Outcome: active

Ocel1 (occludin/ELL domain containing 1) #2
- GFP, % of control: 58.5
- viability (ATP), % of control: 74
- Outcome: inactive

Ocel1 (occludin/ELL domain containing 1) #3
- GFP, % of control: 47.9
- viability (ATP), % of control: 41
- Outcome: inactive

Tex9 (testis expressed gene 9) #1
- GFP, % of control: 81.6
- viability (ATP), % of control: 79.1
- Outcome: inactive

Tex9 (testis expressed gene 9) #2
- GFP, % of control: 84.5
- viability (ATP), % of control: 78.9
- Outcome: inactive

Tex9 (testis expressed gene 9) #3
- GFP, % of control: 88.1
- viability (ATP), % of control: 63.6
- Outcome: inactive

Fzd10 (frizzled class receptor 10) #1
- GFP, % of control: 71.6
- viability (ATP), % of control: 130
- Outcome: inactive

Fzd10 (frizzled class receptor 10) #2
- GFP, % of control: 99
- viability (ATP), % of control: 89.2
- Outcome: inactive

Records above whose gene name starts with T or t:
Tex9 (testis expressed gene 9) #1
- GFP, % of control: 81.6
- viability (ATP), % of control: 79.1
- Outcome: inactive

Tex9 (testis expressed gene 9) #2
- GFP, % of control: 84.5
- viability (ATP), % of control: 78.9
- Outcome: inactive

Tex9 (testis expressed gene 9) #3
- GFP, % of control: 88.1
- viability (ATP), % of control: 63.6
- Outcome: inactive

Next results follow.
Zfp457 (zinc finger protein 457) #1
- GFP, % of control: 54
- viability (ATP), % of control: 57.9
- Outcome: inactive

Zfp457 (zinc finger protein 457) #2
- GFP, % of control: 65.7
- viability (ATP), % of control: 81.4
- Outcome: inactive

Zfp457 (zinc finger protein 457) #3
- GFP, % of control: 98.3
- viability (ATP), % of control: 72.5
- Outcome: inactive

Ctsq (cathepsin Q) #1
- GFP, % of control: 116
- viability (ATP), % of control: 69.3
- Outcome: inactive

Ctsq (cathepsin Q) #2
- GFP, % of control: 70.3
- viability (ATP), % of control: 62.8
- Outcome: inactive

Ctsq (cathepsin Q) #3
- GFP, % of control: 69.4
- viability (ATP), % of control: 68
- Outcome: inactive

E2f2 (E2F transcription factor 2) #1
- GFP, % of control: 82.3
- viability (ATP), % of control: 72.1
- Outcome: inactive

E2f2 (E2F transcription factor 2) #2
- GFP, % of control: 122
- viability (ATP), % of control: 97.8
- Outcome: active

Exoc3l (exocyst complex component 3-like) #1
- GFP, % of control: 58.8
- viability (ATP), % of control: 84.5
- Outcome: inactive

Exoc3l (exocyst complex component 3-like) #2
- GFP, % of control: 82.2
- viability (ATP), % of control: 68.3
- Outcome: inactive

Exoc3l (exocyst complex component 3-like) #3
- GFP, % of control: 63.6
- viability (ATP), % of control: 80.3
- Outcome: inactive

Lpar2 (lysophosphatidic acid receptor 2) #1
- GFP, % of control: 139
- viability (ATP), % of control: 103
- Outcome: active

Lpar2 (lysophosphatidic acid receptor 2) #2
- GFP, % of control: 63.3
- viability (ATP), % of control: 67.2
- Outcome: inactive

Lpar2 (lysophosphatidic acid receptor 2) #3
- GFP, % of control: 53.6
- viability (ATP), % of control: 62.8
- Outcome: inactive
